# In doi:10.1101/2021.06.09.447550:
# Sequences of proteins named here, by UniProt entry; tags and fusion partners are left off.
# UniProt P48431: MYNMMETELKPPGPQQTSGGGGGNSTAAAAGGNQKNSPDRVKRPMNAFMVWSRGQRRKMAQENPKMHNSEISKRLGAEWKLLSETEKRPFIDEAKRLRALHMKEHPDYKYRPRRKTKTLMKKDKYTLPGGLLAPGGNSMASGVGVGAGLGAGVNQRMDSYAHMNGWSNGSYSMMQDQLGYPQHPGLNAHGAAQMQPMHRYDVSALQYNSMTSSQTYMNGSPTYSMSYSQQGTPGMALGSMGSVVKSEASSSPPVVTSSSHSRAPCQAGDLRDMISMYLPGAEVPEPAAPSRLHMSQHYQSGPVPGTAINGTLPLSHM
# UniProt Q93009: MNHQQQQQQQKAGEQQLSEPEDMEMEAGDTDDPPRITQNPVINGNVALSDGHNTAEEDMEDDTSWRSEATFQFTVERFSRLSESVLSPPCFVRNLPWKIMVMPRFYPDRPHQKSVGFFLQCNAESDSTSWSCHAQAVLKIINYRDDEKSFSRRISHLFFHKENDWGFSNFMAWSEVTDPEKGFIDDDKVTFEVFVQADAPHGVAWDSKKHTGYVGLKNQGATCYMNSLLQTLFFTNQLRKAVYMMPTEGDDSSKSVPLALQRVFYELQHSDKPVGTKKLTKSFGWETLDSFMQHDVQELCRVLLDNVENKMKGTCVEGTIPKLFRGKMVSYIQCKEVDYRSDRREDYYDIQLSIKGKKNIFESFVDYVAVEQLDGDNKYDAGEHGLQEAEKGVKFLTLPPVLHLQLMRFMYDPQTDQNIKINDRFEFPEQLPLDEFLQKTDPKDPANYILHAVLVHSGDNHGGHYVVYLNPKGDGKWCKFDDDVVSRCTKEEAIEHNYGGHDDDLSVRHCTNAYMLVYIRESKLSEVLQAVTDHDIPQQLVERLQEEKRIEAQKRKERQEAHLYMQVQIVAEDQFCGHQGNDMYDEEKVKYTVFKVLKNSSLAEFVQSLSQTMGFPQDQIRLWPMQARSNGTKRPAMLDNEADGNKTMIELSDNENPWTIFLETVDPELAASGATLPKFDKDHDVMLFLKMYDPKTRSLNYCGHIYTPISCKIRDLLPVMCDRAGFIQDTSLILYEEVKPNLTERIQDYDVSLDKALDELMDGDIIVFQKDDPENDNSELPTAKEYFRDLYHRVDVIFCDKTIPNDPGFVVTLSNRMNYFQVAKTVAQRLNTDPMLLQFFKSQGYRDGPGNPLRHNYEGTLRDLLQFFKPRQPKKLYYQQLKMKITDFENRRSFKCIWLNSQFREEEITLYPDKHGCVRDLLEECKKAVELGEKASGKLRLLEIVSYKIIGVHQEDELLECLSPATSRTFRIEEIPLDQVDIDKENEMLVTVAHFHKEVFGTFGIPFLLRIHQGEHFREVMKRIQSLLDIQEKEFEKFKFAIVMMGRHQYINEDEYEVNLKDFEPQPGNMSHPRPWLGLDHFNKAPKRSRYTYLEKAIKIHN
# These are yes or no findings as the source states them, for the method shown. In cells and extracts the contact can be indirect. Some binding calls cover weakened binding; strength is not graded here.
# Assays:
# Flag-SOX2 (human) = Flag-SOX2 (human) (UniProt P48431); test: co-IP
# [1] = target: SOX2 (endogenous) (human (endogenous in GSCs from human GBM)) (UniProt P48431); test: co-IP
substance,measurement,setting,value
HAUSP (Herpesvirus-Associated Ubiquitin-Specific Protease) (from UniProt Q93009 1-1102) (enzyme),binding,Flag-SOX2 (human),binds
same,binding,[1],binds
